# Screen size: about 1,200 compounds; about 160 (13%) were called active.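 How the source made its calls: active means activation above the solvent-only control well mean plus 3 SD, set per screening run (cut at about 120% in these data); inactive means the rest.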 The list shows a part of the results, in another mix than the full data.
# Assay: enhancement of STAT1-driven transcription – cell-based, NIH 3T3, luciferase luminescence, IFN-gamma, counter-screen for STAT3 activator project (AID 1318);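 further: 100% = IFN-gamma with DMSO median signal so 100% means no change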
# Conditions: NIH 3T3 STAT1-luciferase reporter, at 5.7 µM, stronger effect = higher value
row,SMILES,activation (% of control)
1,CCC/C(=N\O)c1c[nH]c2ccccc12,inactive: 99.9%
2,COc1cc(-n2c(=S)[nH]c3ccc(C)cc3c2=O)c(Cl)cc1Cl,inactive: 105%

# Reference: PubChem BioAssay AID1318 (The Scripps Research Institute Molecular Screening Center, 2008)
